Assay results from PubChem BioAssay AID330 (DTP/NCI, 2004).
The list shows only some results of the screen, not a fair sample: its compounds were picked by chemical class. Other doses and runs of a compound may be missing. T/C: endpoint of the treated group in % of that of the vehicle group. Where survival is the endpoint, the PubChem record calls one and a half times the control and up active, and a quarter to a half above the control has no call in these data; cut-offs in other NCI protocols can differ. Schedules are NCI's codes, taken here to give the interval after Q, in days (D) or hours (H), and the number of doses after X. Some entries show no survivor count and are marked so; the dose need not have been tolerated. Some entries were tested several times; their values stand side by side, smallest first.

Test system: P388 leukemia ip, CD2F1 mice, survival T/C
Experiment: NCI In Vivo Anticancer Drug Screen. Data for tumor model P388 Leukemia (intraperitoneal) in CD2F1 (CDF1) mice
Details: T/C endpoint: median survival time, higher T/C = longer survival

## CC(=O)OC[C@]12C[C@H](OC(=O)CC(C)C)C(C)=C[C@H]1OC1[C@H](O)[C@@H](OC(C)=O)[C@@]2(C)[C@@]12CO2
dose: 0.06 mg/kg/injection, schedule: Q03HX008 (ip), vehicle: Klucel (hydroxypropylcellulose) (HPC)
  T/C: 130 % of control [survivor count not shown]
dose: 0.06 mg/kg/injection, schedule: Q03HX016 (ip), vehicle: Klucel (hydroxypropylcellulose) (HPC)
  T/C: 110 % of control [survivor count not shown]
dose: 0.06 mg/kg/injection, schedule: Q03HX024 (ip), vehicle: Klucel (hydroxypropylcellulose) (HPC)
  T/C: 120 % of control [survivor count not shown]
dose: 0.08 mg/kg/injection, schedule: Q01DX009 (ip), vehicle: saline with Tween-80
  T/C: 131 % of control [survivor count not shown]
dose: 0.13 mg/kg/injection, schedule: Q01DX009 (ip), vehicle: Klucel (hydroxypropylcellulose) (HPC)
  T/C: 145 % of control [survivor count not shown]
dose: 0.13 mg/kg/injection, schedule: Q01DX009 (sc), vehicle: Klucel (hydroxypropylcellulose) (HPC)
  T/C: 110 % of control [survivor count not shown]
dose: 0.15 mg/kg/injection, schedule: Q01DX009 (ip), vehicle: saline with Tween-80
  T/C: 142 % of control [survivor count not shown]
dose: 0.25 mg/kg/injection, schedule: Q01DX009 (ip), vehicle: Klucel (hydroxypropylcellulose) (HPC), evaluated on day 30
  T/C: 127 % of control [survivor count not shown]
dose: 0.25 mg/kg/injection, schedule: Q01DX009 (ip), vehicle: Klucel (hydroxypropylcellulose) (HPC), evaluated on day 60
  T/C: 170 % of control [survivor count not shown]
dose: 0.25 mg/kg/injection, schedule: Q01DX009 (sc), vehicle: Klucel (hydroxypropylcellulose) (HPC)
  T/C: 145 % of control [survivor count not shown]
dose: 0.3 mg/kg/injection, schedule: Q01DX009 (ip), vehicle: saline with Tween-80
  T/C: 147 % of control [survivor count not shown]
dose: 0.5 mg/kg/injection, schedule: Q01DX001 (ip), vehicle: Klucel (hydroxypropylcellulose) (HPC)
  T/C: 120 % of control [survivor count not shown]
dose: 0.5 mg/kg/injection, schedule: Q01DX009 (ip), vehicle: Klucel (hydroxypropylcellulose) (HPC), evaluated on day 30
  T/C: 140 % of control [survivor count not shown]
dose: 0.5 mg/kg/injection, schedule: Q01DX009 (ip), vehicle: Klucel (hydroxypropylcellulose) (HPC), evaluated on day 60
  T/C: 185 % of control [survivor count not shown]
dose: 0.5 mg/kg/injection, schedule: Q01DX009 (oral), vehicle: Klucel (hydroxypropylcellulose) (HPC)
  T/C: 110 % of control [survivor count not shown]
dose: 0.5 mg/kg/injection, schedule: Q01DX009 (sc), vehicle: Klucel (hydroxypropylcellulose) (HPC)
  T/C: 170 % of control [survivor count not shown]
dose: 0.5 mg/kg/injection, schedule: Q04DX003 (ip), vehicle: Klucel (hydroxypropylcellulose) (HPC)
  T/C: 150 % of control [survivor count not shown]
dose: 0.5 mg/kg/injection, schedule: Q08DX002 (ip), vehicle: Klucel (hydroxypropylcellulose) (HPC)
  T/C: 120 % of control [survivor count not shown]
dose: 0.6 mg/kg/injection, schedule: Q01DX009 (ip), vehicle: saline with Tween-80
  T/C: 177 % of control [survivor count not shown]
dose: 1.0 mg/kg/injection, schedule: Q01DX001 (ip), vehicle: Klucel (hydroxypropylcellulose) (HPC)
  T/C: 130 % of control [survivor count not shown]
dose: 1.0 mg/kg/injection, schedule: Q01DX009 (ip), vehicle: Klucel (hydroxypropylcellulose) (HPC), evaluated on day 30
  T/C: 200 % of control [survivor count not shown]
dose: 1.0 mg/kg/injection, schedule: Q01DX009 (ip), vehicle: Klucel (hydroxypropylcellulose) (HPC), evaluated on day 60
  T/C: 195 % of control [survivor count not shown]
dose: 1.0 mg/kg/injection, schedule: Q04DX003 (ip), vehicle: Klucel (hydroxypropylcellulose) (HPC)
  T/C: 170 % of control [survivor count not shown]
dose: 1.0 mg/kg/injection, schedule: Q08DX002 (ip), vehicle: Klucel (hydroxypropylcellulose) (HPC)
  T/C: 130 % of control [survivor count not shown]
dose: 1.2 mg/kg/injection, schedule: Q01DX009 (ip), vehicle: saline with Tween-80
  T/C: 209 % of control [survivor count not shown]
dose: 2.0 mg/kg/injection, schedule: Q01DX001 (ip), vehicle: Klucel (hydroxypropylcellulose) (HPC)
  T/C: 135 % of control [survivor count not shown]
dose: 2.0 mg/kg/injection, schedule: Q01DX009 (ip), vehicle: Klucel (hydroxypropylcellulose) (HPC)
  T/C: 240 % of control [survivor count not shown]
dose: 2.0 mg/kg/injection, schedule: Q01DX009 (oral), vehicle: Klucel (hydroxypropylcellulose) (HPC)
  T/C: 180 % of control [survivor count not shown]
dose: 2.0 mg/kg/injection, schedule: Q04DX003 (ip), vehicle: Klucel (hydroxypropylcellulose) (HPC)
  T/C: 190 % of control [survivor count not shown]
dose: 2.0 mg/kg/injection, schedule: Q08DX002 (ip), vehicle: Klucel (hydroxypropylcellulose) (HPC)
  T/C: 150 % of control [survivor count not shown]
dose: 4.0 mg/kg/injection, schedule: Q01DX001 (ip), vehicle: Klucel (hydroxypropylcellulose) (HPC)
  T/C: 140 % of control [survivor count not shown]
dose: 4.0 mg/kg/injection, schedule: Q04DX003 (ip), vehicle: Klucel (hydroxypropylcellulose) (HPC)
  T/C: 190 % of control [survivor count not shown]
dose: 4.0 mg/kg/injection, schedule: Q08DX002 (ip), vehicle: Klucel (hydroxypropylcellulose) (HPC)
  T/C: 150 % of control [survivor count not shown]
dose: 8.0 mg/kg/injection, schedule: Q01DX001 (ip), vehicle: Klucel (hydroxypropylcellulose) (HPC)
  T/C: 150 % of control [survivor count not shown]

## CC(=O)OC1(C)CC(=O)OCC23CCC(C)=CC2OC2CC(OC(=O)/C=C/C=C/C(C(C)O)OCC1O)C3(C)C21CO1 (configuration not stated)
dose: 5.0 mg/kg/injection, schedule: Q01DX005 (ip), vehicle: saline
  T/C: 148 % of control [survivor count not shown]
dose: 10.0 mg/kg/injection, schedule: Q01DX005 (ip), vehicle: saline, evaluated on day 20
  T/C: 135 % of control [survivor count not shown]
dose: 20.0 mg/kg/injection, schedule: Q01DX005 (ip), vehicle: saline, evaluated on day 20
  T/C: 155 % of control [survivor count not shown]
dose: 20.0 mg/kg/injection, schedule: Q01DX005 (ip), vehicle: saline, evaluated on day 30
  T/C: 174 % of control [survivor count not shown]
dose: 40.0 mg/kg/injection, schedule: Q01DX005 (ip), vehicle: saline
  T/C: 126 % of control [survivor count not shown]

## CC(=O)OCC12CCC(C)=CC1OC1C(N(C)C)C(O)C2(C)C12CO2 (configuration not stated)
dose: 0.5 mg/kg/injection, schedule: Q04DX002 (ip), vehicle: water
  T/C: 125 % of control [survivor count not shown]
dose: 1.0 mg/kg/injection, schedule: Q04DX002 (ip), vehicle: water
  T/C: 134 % of control [survivor count not shown]
dose: 2.0 mg/kg/injection, schedule: Q04DX002 (ip), vehicle: water
  T/C: 122 [survivor count not shown] and 136 % of control [survivor count not shown]
dose: 4.0 mg/kg/injection, schedule: Q04DX002 (ip), vehicle: water
  T/C: 122 [survivor count not shown] and 144 % of control [survivor count not shown]

## CC1=CC2OC3CC4OC(=O)/C=C/C=C/C(=O)OCCC(C)C(O)C(=O)OCC2(CC1O)C4(C)C31CO1 (configuration not stated)
dose: 0.16 mg/kg/injection, schedule: Q01DX009 (ip), vehicle: saline + alcohol
  T/C: 117 % of control [survivor count not shown]
dose: 0.25 mg/kg/injection, schedule: Q01DX009 (ip), vehicle: suspension in saline
  T/C: 115 % of control [survivor count not shown]
dose: 0.31 mg/kg/injection, schedule: Q01DX009 (ip), vehicle: saline + alcohol
  T/C: 128 % of control [survivor count not shown]
dose: 0.63 mg/kg/injection, schedule: Q01DX009 (ip), vehicle: saline + alcohol
  T/C: 131 % of control [survivor count not shown]
dose: 1.0 mg/kg/injection, schedule: Q01DX009 (ip), vehicle: suspension in saline
  T/C: 102 % of control [survivor count not shown]
dose: 1.25 mg/kg/injection, schedule: Q01DX009 (ip), vehicle: saline + alcohol
  T/C: 132 % of control [survivor count not shown]

## CC1=CC2O[C@@H]3C[C@H]4OC(=O)/C=C\C=C\C56OCCC7(OC7C(=O)OCC2(CC1)[C@]4(C)[C@]31CO1)C5OC(O)C6O (some centres not stated)
dose: 12.5 micrograms/kg/injection, schedule: Q01DX009 (ip), vehicle: Klucel (hydroxypropylcellulose) (HPC)
  T/C: 118 % of control [survivor count not shown]
dose: 25.0 micrograms/kg/injection, schedule: Q01DX009 (ip), vehicle: Klucel (hydroxypropylcellulose) (HPC)
  T/C: 119 % of control [survivor count not shown]
dose: 50.0 micrograms/kg/injection, schedule: Q01DX009 (ip), vehicle: Klucel (hydroxypropylcellulose) (HPC)
  T/C: 118 % of control [survivor count not shown]
